Test results from US7528235B2, “Multi-functional antibodies” (The Regents of the Univarsity of California, priority 2003, dated 2009).

System: 2D12.5
Assay: time-resolved terbium luminescence of Tb-DOTA bound to 2D12.5
Set-up: species or system murine

In the case of `O=C([O-])CN1CCN(CC(=O)[O-])CCN(CC(=O)[O-])C(Cc2ccc([N+](=O)[O-])cc2)CN(CC(=O)[O-])CC1.[Tb+3]` (centres unmarked) [Tb-DOTA], the “enhancement of green terbium luminescence relative to unbound Tb-DOTA” value (UV excitation of the Tb-DOTA-2D12.5 complex) is reported as “approximately four orders of magnitude” and the “enhancement in the green 545 nm emission” value (time-resolved 280 nm excitation, FIG. 15) is reported as “marked, linear enhancement”.
